Source: publication PMC12830637
No constants are given. Whether binding was seen depends on the method and setting. In cells and extracts the contact can be indirect. Some binding calls cover weakened binding; strength is not graded here.

Amino acid sequences for entries named in this document (tags omitted).
UniProt Q13547: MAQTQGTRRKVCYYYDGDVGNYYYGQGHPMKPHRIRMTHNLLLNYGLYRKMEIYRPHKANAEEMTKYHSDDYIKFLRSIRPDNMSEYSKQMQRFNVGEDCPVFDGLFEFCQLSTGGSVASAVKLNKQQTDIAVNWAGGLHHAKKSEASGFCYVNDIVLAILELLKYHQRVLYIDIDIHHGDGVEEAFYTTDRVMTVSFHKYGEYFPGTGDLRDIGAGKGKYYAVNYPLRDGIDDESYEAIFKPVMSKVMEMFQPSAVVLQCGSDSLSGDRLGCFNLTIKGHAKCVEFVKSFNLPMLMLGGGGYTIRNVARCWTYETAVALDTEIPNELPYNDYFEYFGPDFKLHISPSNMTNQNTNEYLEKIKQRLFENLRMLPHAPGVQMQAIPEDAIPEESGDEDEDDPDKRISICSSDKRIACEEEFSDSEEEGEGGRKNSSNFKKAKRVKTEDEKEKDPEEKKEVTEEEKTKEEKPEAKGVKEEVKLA

Legend:
[1] = molecular target: Histone Deacetylase 1 (HDAC1) (human (endogenous in HUVECs)) (UniProt Q13547); experiment: proximity ligation; Duolink In Situ Red kit on fixed HUVECs; primary antibodies against NFAT2 (1:50) and HDAC1 (1:50); cells treated with 5 μM Yoda1 for 2 h, with or without FK506 pretreatment
[2] = molecular target: Histone Deacetylase 1 (HDAC1) (human (endogenous in HUVECs)) (UniProt Q13547); experiment: co-IP; HUVEC lysate (50 mM Tris-HCl pH 7.4, 100 mM NaCl, 10% glycerol, 0.5% NP-40, 1 mM DTT, 1 mM PMSF); IP with anti-HDAC1 antibody or non-specific IgG, 4 °C 12-16 h, Protein A/G magnetic beads; western blot; cells treated with 5 μM Yoda1 for 2 h or untreated

B1: Nuclear Factor of Activated T-cells 2 (NFAT2) (protein, UniProt O95644 1-943)
chain: MPSTSFPVPSKFPLGPAAAVFGRGETLGPAPRAGGTMKSAEEEHYGYASSNVSPALPLPTAHSTLPAPCHNLQTSTPGIIPPADHPSGYGAALDGGPAGYFLSSGHTRPDGAPALESPRIEITSCLGLYHNNNQFFHDVEVEDVLPSSKRSPSTATLSLPSLEAYRDPSCLSPASSLSSRSCNSEASSYESNYSYPYASPQTSPWQSPCVSPKTTDPEEGFPRGLGACTLLGSPRHSPSTSPRASVTEESWLGARSSRPASPCNKRKYSLNGRQPPYSPHHSPTPSPHGSPRVSVTDDSWLGNTTQYTSSAIVAAINALTTDSSLDLGDGVPVKSRKTTLEQPPSVALKVEPVGEDLGSPPPPADFAPEDYSSFQHIRKGGFCDQYLAVPQHPYQWAKPKPLSPTSYMSPTLPALDWQLPSHSGPYELRIEVQPKSHHRAHYETEGSRGAVKASAGGHPIVQLHGYLENEPLMLQLFIGTADDRLLRPHAFYQVHRITGKTVSTTSHEAILSNTKVLEIPLLPENSMRAVIDCAGILKLRNSDIELRKGETDIGRKNTRVRLVFRVHVPQPSGRTLSLQVASNPIECSQRSAQELPLVEKQSTDSYPVVGGKKMVLSGHNFLQDSKVIFVEKAPDGHHVWEMEAKTDRDLCKPNSLVVEIPPFRNQRITSPVHVSFYVCNGKRKRSQYQRFTYLPANVPIIKTEPTDDYEPAPTCGPVSQGLSPLPRPYYSQQLAMPPDPSSCLVAGFPPCPQRSTLMPAAPGVSPKLHDLSPAAYTKGVASPGHCHLGLPQPAGEAPAVQDVPRPVATHPGSPGQPPPALLPQQVSAPPSSSCPPGLEHSLCPSSPSPPLPPATQEPTCLQPCSPACPPATGRPQHLPSTVRRDESPTAGPRLLPEVHEDGSPNLAPIPVTVKREPEELDQLYLDDVNEIIRNDLSSTSTHS
binding [1]: binds | binding [2]: binds
